Results as given in paper PMC5519194.

Columns and labels:
[1] = target: T1, HAS2, endogenous (human (endogenous in MDA-MB-231-BM)) (UniProt Q92819); assay: proximity ligation; in situ PLA on acetone-fixed MDA-MB-231-BM cells with antibodies against HAS2 and USP17 or USP4; endogenous proteins; also after release from double thymidine block and after HAS2 shRNA
T1 sequence: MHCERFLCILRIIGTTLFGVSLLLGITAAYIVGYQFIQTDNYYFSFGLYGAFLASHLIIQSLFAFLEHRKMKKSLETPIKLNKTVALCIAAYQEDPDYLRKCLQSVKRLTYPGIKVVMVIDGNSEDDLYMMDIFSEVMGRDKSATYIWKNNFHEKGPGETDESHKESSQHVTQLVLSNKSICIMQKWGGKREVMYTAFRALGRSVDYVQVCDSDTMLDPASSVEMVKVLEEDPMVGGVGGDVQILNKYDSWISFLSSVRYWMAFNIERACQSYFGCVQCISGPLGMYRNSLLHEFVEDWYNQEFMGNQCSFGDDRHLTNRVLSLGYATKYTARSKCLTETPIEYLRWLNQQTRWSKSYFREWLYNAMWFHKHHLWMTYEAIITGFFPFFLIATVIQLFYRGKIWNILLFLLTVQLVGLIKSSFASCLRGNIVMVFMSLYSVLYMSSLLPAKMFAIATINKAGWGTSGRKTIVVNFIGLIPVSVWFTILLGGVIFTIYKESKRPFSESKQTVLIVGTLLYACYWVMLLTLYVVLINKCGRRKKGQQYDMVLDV

[2] = target: T2, 6myc-HAS2 (hyaluronan synthase 2, wild type) (UniProt Q92819); assay: co-IP; membrane fractions of HEK293T cells co-expressing 6myc-HAS2 and Flag-DUB; TBS/Ca2+ buffer with 0.1% SDS, 0.5% NP-40; immunoprecipitation with anti-myc antibody and protein G-Sepharose overnight at 4 °C; blot with anti-Flag M2
T2 sequence: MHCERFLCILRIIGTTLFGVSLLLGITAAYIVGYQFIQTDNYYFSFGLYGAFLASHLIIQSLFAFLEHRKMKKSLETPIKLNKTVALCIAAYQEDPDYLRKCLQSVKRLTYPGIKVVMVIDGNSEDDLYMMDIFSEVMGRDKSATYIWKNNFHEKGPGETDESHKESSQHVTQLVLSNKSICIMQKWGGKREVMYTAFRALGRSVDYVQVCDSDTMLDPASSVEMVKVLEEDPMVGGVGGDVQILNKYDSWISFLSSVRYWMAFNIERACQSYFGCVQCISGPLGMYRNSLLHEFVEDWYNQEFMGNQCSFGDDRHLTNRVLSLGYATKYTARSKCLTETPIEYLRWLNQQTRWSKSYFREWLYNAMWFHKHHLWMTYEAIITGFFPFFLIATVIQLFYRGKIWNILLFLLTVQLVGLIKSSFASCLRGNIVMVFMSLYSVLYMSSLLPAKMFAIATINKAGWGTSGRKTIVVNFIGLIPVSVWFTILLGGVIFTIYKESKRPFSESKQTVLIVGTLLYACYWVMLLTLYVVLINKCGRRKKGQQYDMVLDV

[3] = target: Flag-HA-USP17 (wild type; truncated protein of 413 amino-acid residues) (human); assay: co-IP; membrane fractions of HEK293T cells co-expressing 6myc-HAS2 and Flag-DUB; TBS/Ca2+ buffer with 0.1% SDS, 0.5% NP-40; immunoprecipitation with anti-Flag-M2 magnetic beads overnight at 4 °C; blot with anti-myc

In the case of “USP17, endogenous (human (endogenous in MDA-MB-231-BM)) (enzyme)”, the binding [1] is reported as “binds”.

With “Flag-HA-USP17 (wild type; truncated protein of 413 amino-acid residues) (human) (enzyme)” the binding [2] was “binds”.

B1: 6myc-HAS2 (hyaluronan synthase 2, wild type) (enzyme, UniProt Q92819 1-552)
chain: MHCERFLCILRIIGTTLFGVSLLLGITAAYIVGYQFIQTDNYYFSFGLYGAFLASHLIIQSLFAFLEHRKMKKSLETPIKLNKTVALCIAAYQEDPDYLRKCLQSVKRLTYPGIKVVMVIDGNSEDDLYMMDIFSEVMGRDKSATYIWKNNFHEKGPGETDESHKESSQHVTQLVLSNKSICIMQKWGGKREVMYTAFRALGRSVDYVQVCDSDTMLDPASSVEMVKVLEEDPMVGGVGGDVQILNKYDSWISFLSSVRYWMAFNIERACQSYFGCVQCISGPLGMYRNSLLHEFVEDWYNQEFMGNQCSFGDDRHLTNRVLSLGYATKYTARSKCLTETPIEYLRWLNQQTRWSKSYFREWLYNAMWFHKHHLWMTYEAIITGFFPFFLIATVIQLFYRGKIWNILLFLLTVQLVGLIKSSFASCLRGNIVMVFMSLYSVLYMSSLLPAKMFAIATINKAGWGTSGRKTIVVNFIGLIPVSVWFTILLGGVIFTIYKESKRPFSESKQTVLIVGTLLYACYWVMLLTLYVVLINKCGRRKKGQQYDMVLDV
For B1, the binding [3] was “binds”.

Results are given in words; binding and its absence hold for the method and conditions named. Binding seen in cells or lysates may run through a third protein. Binding can be weak; no strength is given. For part of these data: Where a sequence is shown, tags or fusion partners need not be part of it.
